Test results reported in publication PMC5286803.
Results are given in words; binding and its absence hold for the method and conditions named. Binding seen in cells or lysates may run through a third protein. Some results given as binding are weak or reduced against the parent protein; the word gives no strength.

Tests used:
[1] = target: recombinant CHI3L1 protein (rCHI3L1), P36222; experiment: co-IP; Gastric and breast cancer cells incubated with rCHI3L1 for 3 h; cell membrane proteins immunoprecipitated with anti-CHI3L1 or isotype IgG and analysed by western blotting; cells not treated with rCHI3L1 as controls; only the target purified; settings: remark: other sources report otherwise
[2] = target: GST (glutathione S transferase)-conjugated CHI3L1 protein, P36222; experiment: pull-down; Glutathione-Sepharose beads coupled with purified GST-CHI3L1 (or GST) incubated with solubilized membrane proteins of gastric and breast cancer cells for 1 h at 4 °C; washed with 50 mM HEPES-KOH, 150 mM NaCl, 1 mM MgCl2, 0.2% Triton-X-100, pH 7.2; 10% SDS-PAGE, Coomassie; differential band identified by mass spectrometry; only the target purified; settings: remark: other sources report otherwise

B1: interleukin (IL)-13 receptor α2 chain (IL-13Rα2), Q14627 27-380 (receptor)
chain: DTEIKVNPPQDFEIVDPGYLGYLYLQWQPPLSLDHFKECTVEYELKYRNIGSETWKTIITKNLHYKDGFDLNKGIEAKIHTLLPWQCTNGSEVQSSWAETTYWISPQGIPETKVQDMDCVYYNWQYLLCSWKPGIGVLLDTNYNLFYWYEGLDHALQCVDYIKADGQNIGCRFPYLEASDYKDFYICVNGSSENKPIRSSYFTFQLQNIVKPLPPVYLTFTRESSCEIKLKWSIPLGPIPARCFDYEIEIREDDTTLVTATVENETYTLKTTNETRQLCFVVRSKVNIYCSDDGIWSEWSDKQCWEGEDLSKKTLLRFWLPFGFILILVIFVTGLLLRKPNTYPKMIPEFFCDT
- binding [1]: binds
- binding [2]: binds
